Assay results reported in PMC7819943, “Rice protein-binding microarrays: a tool to detect cis-acting elements near promoter regions in rice”.
Some of the results follow.

Amino acid sequences for entries named in this document (tags omitted).
UniProt Q0JBA9, entry or part of it: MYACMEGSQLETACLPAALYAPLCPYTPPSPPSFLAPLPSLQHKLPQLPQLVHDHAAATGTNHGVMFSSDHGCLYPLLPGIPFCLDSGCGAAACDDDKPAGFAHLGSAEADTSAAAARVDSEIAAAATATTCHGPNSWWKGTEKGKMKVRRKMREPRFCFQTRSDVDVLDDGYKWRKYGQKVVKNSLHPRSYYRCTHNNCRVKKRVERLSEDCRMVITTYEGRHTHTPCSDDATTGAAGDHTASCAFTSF

Target: OsWRKY34 (Oryza sativa, UniProt Q0JBA9 1-250)
Experiment: protein-binding microarray (RPBM); PBS, 2% BSA, 51.3 ng/ul salmon testes DNA, 50 uM zinc acetate, 200 nM TF, 25 C, 1 h; high values mean tight binding
Conditions: protein: recombinant; tags: N-terminal polyhistidine and DsRed monomer fusion (pET32a); label: CyDye5-dUTP incorporated in the synthesized complementary strand; 3' TTTTT single-stranded linker to array surface; dsDNA, one strand shown
Summary of the method: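 The binding signal is fluorescence intensity per array feature (arbitrary units). Readings came from an Axon 4000B scanner after a washed, 2% BSA-blocked, double-stranded custom Agilent array had been incubated for 1 h at 25 °C with 200 nM protein and 50 µM zinc acetate. The protein was a Ni–NTA-purified transcription factor fused N-terminally to polyhistidine and DsRed, expressed in E. coli BL21-CodonPlus.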

Sequence	binding signal
CTCGATCCGCCTTGCCCAAGCGGTCTCCGCCTTTGCCCTCCGGAGTCACCTAGTGCAG	8220 fluorescence intensity (a.u.)
TATGGTGCTGAGTTCACCTTCAATTACTGTGCTGTTTACTCGGAGTCACCTAGTGCAG	8660 fluorescence intensity (a.u.)
TGCTAGGTACAAGTGTTTTTCCACACTTCTTGTTCTTCTTCGGAGTCACCTAGTGCAG	9990 fluorescence intensity (a.u.)
GATCGCGCGACTCTTGAGAACCGTGACCTTTATATACTTTCGGAGTCACCTAGTGCAG	8150 fluorescence intensity (a.u.)
GGGCTTGCCCCTCTCCAGGGCCCTCTAGAACGTTCCACTCCGGAGTCACCTAGTGCAG	8260 fluorescence intensity (a.u.)
TTGCCTTGCCAGTCAGTGCTCGAGTTCGTCTCGCTCTCCGCGGAGTCACCTAGTGCAG	8730 fluorescence intensity (a.u.)
GAGCCCACCATACTATCCAGCCCGTCTCATCTCCGCCGCTCGGAGTCACCTAGTGCAG	11200 fluorescence intensity (a.u.)
AGCAGCTTGTTTCAATTGGTTTATCGTTGGTTGGATGGTTCGGAGTCACCTAGTGCAG	9220 fluorescence intensity (a.u.)
CACACGCCCTATCGGATCGAGGTTTCTGTATACTCCCTCTCGGAGTCACCTAGTGCAG	8780 fluorescence intensity (a.u.)
CTTTACTGGTTTGCTGTTTGCCGGCCGGCCTGATCATCGACGGAGTCACCTAGTGCAG	8300 fluorescence intensity (a.u.)
AAGTAAGATGCCACACACCATAGTCTGCTTCACTGTCAACCGGAGTCACCTAGTGCAG	9080 fluorescence intensity (a.u.)
GTTTCCGTCGTTGTTTGCTCCGCCACGAGGGCGCGCTACACGGAGTCACCTAGTGCAG	9290 fluorescence intensity (a.u.)
AAATCTAATACTTAATTAATCATACACTAATATACTGTTTCGGAGTCACCTAGTGCAG	9350 fluorescence intensity (a.u.)
CTCTTGCTGTTTCCTTTGCTCTGTTTCCTCTGCCTGCGCCCGGAGTCACCTAGTGCAG	8760 fluorescence intensity (a.u.)
CTGCGCTTCCGCCGACCACATCAGCTGCAGCACCAGCACCCGGAGTCACCTAGTGCAG	8250 fluorescence intensity (a.u.)
TAGCCTTTTGTAATTTTTCTTTTTTCCTATAAATATTTTTCGGAGTCACCTAGTGCAG	9670 fluorescence intensity (a.u.)
TACACCTGACTGTCGACCCTCACCATCTAGACACTTCCATCGGAGTCACCTAGTGCAG	8730 fluorescence intensity (a.u.)
AGTGTCTTGGCATATCCAGATTCTAGAGTGGTTCTCAAAACGGAGTCACCTAGTGCAG	8710 fluorescence intensity (a.u.)
TGTATGGTTGGTTATTGTGTGCTTCTAAGTGTGAAAATAACGGAGTCACCTAGTGCAG	8420 fluorescence intensity (a.u.)
CTTGCTCTAGGCCTCTTCTCCTTCGCTTGTCCGGCCAGAACGGAGTCACCTAGTGCAG	9390 fluorescence intensity (a.u.)
ACATAACCCCGTCATCTCGGCGACCCTCTCTCGTGGTCGCCGGAGTCACCTAGTGCAG	8540 fluorescence intensity (a.u.)

Sequence	binding signal
GAGTTCTCATCTTCTCGTATGTTCCACCCAGTCACTAAAACGGAGTCACCTAGTGCAG	8490 fluorescence intensity (a.u.)
GTGAATTAATTGGGCCCACACCTTTTCATGCACCCCTTGCCGGAGTCACCTAGTGCAG	8480 fluorescence intensity (a.u.)
CATACTCATTATTCCCGTCCACATGGTTTCATCTCGCCAGCGGAGTCACCTAGTGCAG	10300 fluorescence intensity (a.u.)
TTGTCATATCCCCTTCAACGGATTGCTGGCTGGAAACACACGGAGTCACCTAGTGCAG	8210 fluorescence intensity (a.u.)
CGCCGTGCTCCTCTTCTCTTCGCTGCCGTCGCCGTGCCTTCGGAGTCACCTAGTGCAG	8690 fluorescence intensity (a.u.)
CACTGCTTTGTTTGATTGTCAGTTGGTGTGCTTTCTTACCCGGAGTCACCTAGTGCAG	9420 fluorescence intensity (a.u.)
CTGACATGCGTCGCCATTGACTTTCGCCGCCGCCGCCGCGCGGAGTCACCTAGTGCAG	9140 fluorescence intensity (a.u.)
ATATATCCCTCGTACACCCTGCTCTGAATGATAGTGTTGACGGAGTCACCTAGTGCAG	10000 fluorescence intensity (a.u.)
TTCCCCACCCTCACGCCGCCGCCCACCACGCCGTCGTCCTCGGAGTCACCTAGTGCAG	9820 fluorescence intensity (a.u.)
CTCCTTCCCTATGGTCTTCTTCTTCTTCTTCTTCTTCCTCCGGAGTCACCTAGTGCAG	8450 fluorescence intensity (a.u.)
CAACCAACCCGATCCGATCCAGCCGCCGCCGCCGCCGCCACGGAGTCACCTAGTGCAG	8290 fluorescence intensity (a.u.)
CGTGTCGTGTCGTGTGTGTGCGTGCCAACCGCGCGCGCGTCGGAGTCACCTAGTGCAG	8590 fluorescence intensity (a.u.)
CGAATACCCACCCTGTTCCACCCTTTCCATTATGCATCCACGGAGTCACCTAGTGCAG	9490 fluorescence intensity (a.u.)
GCTATGCTTCTGTTTTTTTGTTTGTTTTTCAGGTGCACAACGGAGTCACCTAGTGCAG	8200 fluorescence intensity (a.u.)
ACTGTAATGAGCACTGCCCGTTAGCCCTTTTGCTTCATATCGGAGTCACCTAGTGCAG	10500 fluorescence intensity (a.u.)
GATCCTCTCGTCGGATGGGTTGGGCTATACGGTTCTAGAGCGGAGTCACCTAGTGCAG	9460 fluorescence intensity (a.u.)
GCAGTTATGGGTTTCTTTGTTCAACGATTGACCGTCTATCCGGAGTCACCTAGTGCAG	12600 fluorescence intensity (a.u.)
GGGCATTTATGTCCTTTTGAAATTTCTATCTCCTCTTTTTCGGAGTCACCTAGTGCAG	8180 fluorescence intensity (a.u.)
ATATTCGAAGTTCATTTGGTCTGATGCATACTGTTCTTATCGGAGTCACCTAGTGCAG	10900 fluorescence intensity (a.u.)
TCTATCATGTTAAACACATTTACTTCTTCAGTTGTACATTCGGAGTCACCTAGTGCAG	9450 fluorescence intensity (a.u.)
AACTCTCCTCCGCCTCCTCTCACCGCCGCCTCACGCACTTCGGAGTCACCTAGTGCAG	8980 fluorescence intensity (a.u.)

Sequence	binding signal
TGTTCTTCTCTTTGTCTGCTTCTGCCACCTTTGAAAGGTTCGGAGTCACCTAGTGCAG	8300 fluorescence intensity (a.u.)
CAATTTTCTGGCGAACTGTGTTTTTTTTTGTCTACATTTACGGAGTCACCTAGTGCAG	9490 fluorescence intensity (a.u.)
TTTAAGTTTCGACAAGGGGTGGGTGATGCCATGGGAGGGCCGGAGTCACCTAGTGCAG	10900 fluorescence intensity (a.u.)
GTTTTGCCCGCCTCCGCCCACGCGTCCCTTGTTGCCACGCCGGAGTCACCTAGTGCAG	10300 fluorescence intensity (a.u.)
AACGGTTTATATGATGTGCTGCTGACTCACTCATTATTCTCGGAGTCACCTAGTGCAG	11600 fluorescence intensity (a.u.)
CTAACCACCACCATCAACTCATTCAACTGCCAAAAGCGTCCGGAGTCACCTAGTGCAG	9020 fluorescence intensity (a.u.)
CCTTTCTGAAACCTGCATGATCATGTACCACTTAAACTGTCGGAGTCACCTAGTGCAG	8920 fluorescence intensity (a.u.)
AAAAACGTTTGACCGGGTCATTGTCTTATTTTTAAATAATCGGAGTCACCTAGTGCAG	12600 fluorescence intensity (a.u.)
ACTTCCAGGTTTTCATGACCCTACATGTCATAGTCATTTGCGGAGTCACCTAGTGCAG	8520 fluorescence intensity (a.u.)
TTGTTTATTTATTCTTTATATTTACGACCATACAGGTTCACGGAGTCACCTAGTGCAG	8110 fluorescence intensity (a.u.)
GTCCTTTTTTCCTCTTTTTTAATACCTTATTCGTTTCAAACGGAGTCACCTAGTGCAG	11400 fluorescence intensity (a.u.)
CTATATATCGGTAGACCGCTGCTCTTTTATCTTATTTTTTCGGAGTCACCTAGTGCAG	15400 fluorescence intensity (a.u.)
CTCACTCCCTCTCACTCTCTTGTCTCCACTCTCCTCTCCTCGGAGTCACCTAGTGCAG	10800 fluorescence intensity (a.u.)
AGCAGCTTCATCTTTTGGCTTCATTTAAAGCTATAGCTTTCGGAGTCACCTAGTGCAG	9980 fluorescence intensity (a.u.)
GTCTGCAGCTCCACTTATGTATAGTGATCTTAATGTTTCACGGAGTCACCTAGTGCAG	10200 fluorescence intensity (a.u.)
TCTGCAGTCTGTGTCGTCTCCTCCGGTCCTTGCGCGCAAGCGGAGTCACCTAGTGCAG	13600 fluorescence intensity (a.u.)
GCTACTATTGCATGCATATATTCCCTCCGTCTCAAAATATCGGAGTCACCTAGTGCAG	8350 fluorescence intensity (a.u.)
TATATATATATATATATATATAATTCGTTTGTGGTACATACGGAGTCACCTAGTGCAG	9710 fluorescence intensity (a.u.)
ACTTCACCAGTTCACCACCGTGGCACTCCCTGGGACTGAACGGAGTCACCTAGTGCAG	10800 fluorescence intensity (a.u.)
CTGTTCTGGTCTGCAAATATTTTTTTCTCTTTTTTTTTTTCGGAGTCACCTAGTGCAG	15700 fluorescence intensity (a.u.)
CATTTTGTCCCAGAAATGCCATCACCGTCACTTTTACTCTCGGAGTCACCTAGTGCAG	9160 fluorescence intensity (a.u.)

Sequence	binding signal
AGCTGTCAGACAACCATTGCTACCGAACATCCCTATAAGCCGGAGTCACCTAGTGCAG	8420 fluorescence intensity (a.u.)
GGGGTGGGCATGGCGGCTCGTAGGCACTGAGGCAGGGCGTCGGAGTCACCTAGTGCAG	8780 fluorescence intensity (a.u.)
CCTGTCAAAATCCTACGTATTTTCTATTCCTCTGTTTTTCCGGAGTCACCTAGTGCAG	12400 fluorescence intensity (a.u.)
ATTTAGAACAACATTTTACTGTTCGGCGCAACTTGCTTTTCGGAGTCACCTAGTGCAG	8170 fluorescence intensity (a.u.)
GTTTACCTCTTGCTGTAATCAACTTGCCCATGTATGTACTCGGAGTCACCTAGTGCAG	9960 fluorescence intensity (a.u.)
ATTCGTAGCTACATTTTTCTATTGCCGTTCCAATCTATTGCGGAGTCACCTAGTGCAG	8210 fluorescence intensity (a.u.)
GCCCGTTGCTCATCTCTCTCATCGTTTATCGCATTAAAATCGGAGTCACCTAGTGCAG	17900 fluorescence intensity (a.u.)
ACTTGACAGGTAGCTCGGCCTTCTTTTCTCTCTCTCTCTCCGGAGTCACCTAGTGCAG	8130 fluorescence intensity (a.u.)
TCTCTCTCTCTCGCACAATCATCGCCGCCACCACCCTCTGCGGAGTCACCTAGTGCAG	8120 fluorescence intensity (a.u.)
TCCATGCTATTGAGCTTTCCCAGTCAACGATTTGCCATCGCGGAGTCACCTAGTGCAG	9070 fluorescence intensity (a.u.)
CTAACAACCTTCTATAGTTCATTTGGTCTCTAACTTCTCACGGAGTCACCTAGTGCAG	11300 fluorescence intensity (a.u.)
GCCTTCTAGGGTTTTGTGGCTGGCTTACCCTTATCCCGGCCGGAGTCACCTAGTGCAG	9800 fluorescence intensity (a.u.)
TTTTGGTTTTTGGGTTAAGGGTGGTTGTGTCTTATATTTTCGGAGTCACCTAGTGCAG	10900 fluorescence intensity (a.u.)
TTAGCCTTGTGAGCCCCACATATATAAAGCTTGTTGTTTCCGGAGTCACCTAGTGCAG	8400 fluorescence intensity (a.u.)
CATTATGCGGGGAGTTTTGTCAGTAACTGTGATATCTGGGCGGAGTCACCTAGTGCAG	8060 fluorescence intensity (a.u.)
TTGCATTTCATCCGGTTCTGAGAGCGTCTCATCGACTCTCCGGAGTCACCTAGTGCAG	9700 fluorescence intensity (a.u.)
ACGTGATAACGACGACATGTTCTCTCTTTTTTTTTTGGGTCGGAGTCACCTAGTGCAG	8400 fluorescence intensity (a.u.)
AACAATACGGGAAAAATTGCTTTTACTACCTTCCCATCCTCGGAGTCACCTAGTGCAG	8690 fluorescence intensity (a.u.)
AATATAACACCATACTTGGCTGCTGGGTTGGGTTGGAGTACGGAGTCACCTAGTGCAG	12700 fluorescence intensity (a.u.)
TGTGGATTTGAATTGTTATGGATTTGAGATTTGGGGATGTCGGAGTCACCTAGTGCAG	13400 fluorescence intensity (a.u.)
CTTTTATTTAACGGATGTTTCACCATGGTCTTTACTGTAGCGGAGTCACCTAGTGCAG	9320 fluorescence intensity (a.u.)
